Data from BindingDB's records for PubMed 2139469 (University of Nebraska, 1990).
Where a name gives a salt, the structure may show the parent alone.

The chains behind the UniProt entries cited, without tags or fusion partners.
UniProt Q95136, whole entry: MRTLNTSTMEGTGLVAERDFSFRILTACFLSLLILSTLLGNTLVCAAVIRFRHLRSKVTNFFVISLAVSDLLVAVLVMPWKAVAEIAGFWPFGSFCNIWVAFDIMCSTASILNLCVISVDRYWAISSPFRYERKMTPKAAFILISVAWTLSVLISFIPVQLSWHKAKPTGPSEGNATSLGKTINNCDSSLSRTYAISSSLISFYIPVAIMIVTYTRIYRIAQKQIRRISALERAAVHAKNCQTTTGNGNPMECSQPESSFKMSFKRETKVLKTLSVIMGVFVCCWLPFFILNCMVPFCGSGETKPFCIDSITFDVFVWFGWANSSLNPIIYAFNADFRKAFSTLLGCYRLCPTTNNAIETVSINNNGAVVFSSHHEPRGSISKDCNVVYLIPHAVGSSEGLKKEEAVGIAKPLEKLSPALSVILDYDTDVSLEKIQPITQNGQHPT

Target: D(1A) dopamine receptor (Bos taurus, UniProt Q95136)

Row | Compound | Ki [nM]
1 | CC(C)NC[C@H](O)COc1cccc2ccccc12 [Propanolol,(+/-)] | > 10000
2 | OCCN1CCN(CCCN2c3ccccc3Sc3ccc(C(F)(F)F)cc32)CC1 [2-[4-[3-[2-(trifluoromethyl)phenothiazin-10-yl]propyl]piperazin-1-yl]ethanol;hydrochloride] | 18
